Measured values taken from PMC10163288.
The list shows a part of the results.

B1: il2ra_site2_3nfp_normal_mot_HHH_b1_05785_af2_000000002_0001_41_57_H_._HHH_b2_03463_af2_0001_0000200005_0000001_0 (protein)
chain: SSSSDRAEEYLRAALELAKEAIEQGDHEVAEKILRLVVLLAEDLGDEEVLEEAEKLLEEISSSSS
B2: il2ra_site2_2erj_sap_16_mot_38c2a25aa59ed796a93a89c387754b2e_0001_1_000000210_0001_16_32_H_._HEEHE_2940_0001_0000300006_0000001_0_0001 (protein)
chain: SSSDELRELFELANKLLHALTKGDEELFRELLEEARRLAEKLDSRTAKEILEHLERLFESTSSSS
B3: il2ra_site2_2erj_sap_13_mot_HHH_b2_06689_af2_000000039_0001_18_34_H_._HHH_b1_05500_af2_0001_0000100002_0000001_0_0001 (protein)
chain: SSSSSEELHRLYELAVELLRAVAEGDEELVREILEEVEELAERADSENVKELIENLHRLFNSSSS
B4: il2ra_site2_3nfp_sap_16_mot_HHH_b1_03316_000000041_0001_39_56_H_._702997820559c2f17efcc64b63c1c749_0001_1_0001_0000200016_0000001_0_0001_af2pred_0001_1_af2pred_ … (protein)
chain: DSEKELFKEALEEGDPALIDAVALAIALAERGKPPEEIEKSVERWLRAQGVPPEEIEEILELLRK
B5: il2ra_site1_1z92_sap_10_mot_HHH_b2_01254_af2_000000148_0001_42_56_H_._HHH_b1_02802_0001_0000600017_0000001_0_0001_af2pred_0001_af2pred_1_swapped (protein)
chain: SLQEEVRRLLEEAGVPPSDIKIFKELIEQAEEEGAPPEAILRDLIRFLEFAGDPEAAELLRRLEK
B6: il2ra_site2_2erj_normal_mot_HHH_b1_03609_af2_000000077_0001_42_55_H_._HHH_b2_00837_0001_0000600017_0000001_0 (protein)
chain: SSSSSDEEEQEVEELLEEAKRIEDPEERERVLRRASIIAFRLGNFELWALIAEVFRELSSSSSSS
B7: il2ra_site2_3nfp_sap_23_mot_HHH_b1_04032_000000208_0001_43_56_H_._c19e5fdadaa67d7d98d76bf2a1bb890a_0001_af2_0001_0000400031_0000001_0_0001 (protein)
chain: SSSSDVERRVQELQVRAYELLKRGNPEEARELLEEALELAEEGNDPHLERQVREALELLKSSSSS
B8: il2ra_site2_3nfp_sap_21_mot_HHH_b1_07556_000000077_0001_42_55_H_._HHH_b2_06001_0001_0000200009_0000001_0_0001 (protein)
chain: SSSSKAEEYLKIALELLRELLEAGDEEAARSVAEVALAAAESRNDEEVEEEVRKVLEELESSSSS
B9: il2ra_site2_2erj_normal_mot_HHH_b2_00732_af2_000000006_0001_23_40_H_._HHH_b2_05430_0001_0000400009_0000001_0 (protein)
chain: SSSSYEVLKRVMELLAEAMRAAWEGDPELVRELLEEAKELAEEHKNEDLEKIIEEVEHTLRSSSS
B10: il2ra_site2_2erj_sap_16_mot_HHH_b1_03702_000000266_0001_38_56_H_._890837e3a18e6c361ae5da7f11a0c10d_0001_1_0001_0000400010_0000001_0_0001 (protein)
chain: SSSSSDSLEVNKEMAEELFEEGDRSALELILRYLELILRDTGDPEIEKAYERVQELLERLSSSSS
B11: il2ra_site2_3nfp_sap_24_mot_HHH_b1_08081_af2_000000020_0001_38_50_H_._HHH_b2_06530_0001_0000200022_0000001_0_0001_af2pred_0001_af2pred (protein)
chain: DHVSRVIRELFEEGDPELALLLSSVKALVFEKNDPELEEELEKLIELAKRDPEEAKELARRLAQR
B12: il2ra_site1_1z92_sap_31_mot_HHH_b1_00484_000000059_0001_1_21_H_._3bb7d9e44b5839af8d8f44c30c46ab63_0001_af2_0001_0000200019_0000001_0_0001_af2pred_0001_af2pred (protein)
chain: SSSSDEELREFAEEVVERLVEEFGLDEELERLLRRLAEKLVEAGFSPKSIELALRAAVERLSSSS
B13: il2ra_site2_2erj_sap_18_mot_HHH_b2_00554_af2_000000116_0001_43_57_H_._HHH_b2_00577_0001_0000400010_0000001_1_0001 (protein)
chain: SSSSDEELRRLYELAVRILRAIAEGNPEEAKELLRELEELAEETKSDNVKEIVEWLERMLRSSSS
B14: il2ra_site1_3nfp_sap_24_mot_HHH_b1_01291_000000078_0001_42_56_H_._7f39e2d7389de0c2f60e905c27398b6a_0001_1_af2_0001_0000700016_0000001_0_0001 (protein)
chain: DVEELLKLARELGDELVEEVAEFLAEELEKDPDNEAVRYAVKMLLDALERNPEYAKRAAELALRA
B15: il2ra_site2_2erj_sap_17_mot_HHH_b2_05486_000000159_0001_39_55_H_._HHH_b1_08641_af2_0001_0000100002_0000001_0_0001 (protein)
chain: SSSSSDEIEEEVLELIAEAAHIPDPKEAVEVLEHALELAEEYGNELLRRYLELSLKDIRGSSSSS
B16: il2ra_site1_1z92_sap_14_mot_HHH_b1_05862_af2_000000270_0001_22_38_H_._HHH_b1_06212_0001_0000200007_0000001_0_0001_af2pred_0001_af2pred_1 (protein)
chain: SSSSSDLEELIEEIARELAEENNDEDLREELEKAAERLKKLGTSHERARKILEKLVKAARSSSSS
B17: il2ra_site1_3nfp_sap_17_mot_HHH_b2_05479_af2_000000070_0001_1_16_H_._HHH_b2_02924_af2_0001_0000200019_0000001_0_0001_af2pred_0001_1_af2pred_swapped (protein)
chain: SSSSSSDEEEVEELLERAKRVEDIKEAQELLEEALRIASETDNPELRKLVEEAMRELAGSSSSSS
B18: il2ra_site1_1z92_sap_22_mot_707acc9d051fe3a4acad5ad22db0e630_0001_1_af2_000000084_0001_35_50_H_._HHH_b1_02301_0001_0000400017_0000001_0_0001 (protein)
chain: SSSSSWREESLRMMLRVLERAVKAGNERAVEKWLRMIEMQAKILGDPEAEELVEEVRERLSSSSS
B19: il2ra_site1_3nfp_sap_8_mot_119b7766384adbe86006a62bce89dba1_0001_af2_000000092_0001_18_32_H_._HHH_b2_02632_0001_0000300007_0000001_0_0001 (protein)
chain: SSSSDARELLFEAAEILDELAERGDHEELKRFAEEVIEELEELGNRQAARMIRWLVERALSSSSS
B20: il2ra_site1_2b5i_sap_13_mot_HHH_b2_04910_000000118_0001_1_19_H_._HHH_b1_01231_0001_0000100002_0000001_0_0001_af2pred_0001_af2pred (protein)
chain: SSSSSEASKLFWEYLEQADRALRRGNPEEAEELLEELIRLLRELNNPTLVRSAELLLEQLKSSSS
B21: il2ra_site1_1z92_normal_mot_8a2488b2a3eb54e2d6a8d2f084ff7391_0001_000000050_0001_32_46_H_._b88b9ab6f2ed0898e4e13bd4c8b0475b_0001_af2_0001_0001000045_0000001_0 (protein)
chain: DEEVEQLFEELKKRIPPEEVVRILLEELAEKLGDPKEAIRIVHQVLRKLGFSPEEIIELARKADK
B22: il2ra_site1_1z92_sap_8_mot_a31c9f16200a66e5ad31ddff700483a3_0001_1_000000069_0001_19_32_H_._HHH_b1_08052_0001_0000300018_0000001_0_0001_af2pred_0001_af2pred (protein)
chain: SSSSEESLRRLAERLVEDAAKLADLSEEQKEELEELAEELIKRGVDPHEIAKELERLADELSSSS
B23: il2ra_site2_3nfp_sap_12_mot_HHH_b1_02359_000000112_0001_1_19_H_._HHH_b1_07040_0001_0000500008_0000001_0_0001 (protein)
chain: SSSSSSKRLLEAAIRSLRILKERGDEEMAKLAVRYLLAAARLHGDEEAREFAEELLKELRSSSSS
B24: il2ra_site1_1z92_sap_7_mot_2d0b8033f7cc6bf30152df0733deaa63_0001_af2_000000109_0001_53_63_H_._HHH_b1_05185_0001_0000500022_0000001_0_0001_af2pred_0001_af2pred_1 (protein)
chain: DEALEILLLLAKGDPEAERLLRELIERLEEEGDEEEVRFLLEEAEKIVKLFNNPEAQRVVEELEP
B25: il2ra_site2_3nfp_normal_mot_HHH_b2_06150_000000217_0001_39_53_H_._HHH_b2_05434_af2_0001_0000100005_0000001_0 (protein)
chain: SSSSDEEEVEKLLKKAEELRERGNPEEARKLLREATQIAYERRDSELFFLVAEVLFEVLLSSSSS
B26: il2ra_site1_1z92_sap_30_mot_HHH_b1_04932_af2_000000260_0001_1_19_H_._HHH_b1_03927_af2_0001_0000800028_0000001_0_0001_af2pred_0001_af2pred (protein)
chain: SSSSNSLERILEILLRNVEKALESGNPRAARRLLEEAKKAAKDAGDEEVERRLEELEELLNSSSS
B27: il2ra_site1_3nfp_sap_19_mot_1cd86ef9f1587ae5d14d35bbbd8e7f1d_0001_1_000000087_0001_34_49_H_._HHH_b2_06979_0001_0000500027_0000001_0_0001_af2pred_0001_1_af2pred_ … (protein)
chain: SSSSSSSSERFLRELLERAERRNNELDLKAIARMLKQAAELHNNEELFEKAKEIEERLSSSSSSS
B28: il2ra_site1_1z92_normal_mot_3c291a2f2994a8e029b17f9ec7f22732_0001_af2_000000144_0001_36_50_H_._1a8b5531b1c5c0995b8d0dfb01d8624e_0001_0001_0000300044_0000001_1 (protein)
chain: SFEYLEEEVKEAAENNDPELLQELLEELEEIAGDPHLATQFLVALIARVLNIPPEEARKIVEEVK
B29: il2ra_site2_3nfp_sap_21_mot_ems_3hM_1278_af2_000000151_0001_43_60_H_._ae2d1c0b5552e85e62693402b9c72bf7_0001_af2_0001_0000500079_0000001_0_0001 (protein)
chain: SSSSDVEERVRELLEEAERLREEGNPEEVKELLAEAAQLAFENNDERAFMLIAEVVLKLAQSSSS
B30: il2ra_site1_2b5i_sap_5_mot_HHH_b1_04602_000000079_0001_23_39_H_._HHH_b2_01629_0001_0000300018_0000001_0_0001 (protein)
chain: SSSSDVEEQVDELFREASELWRKGNPEEAEKVLEEAIELAKKSGDPKAEEDLERFLEMLRSSSSS
B31: il2ra_site1_3nfp_sap_14_mot_0eddeacbb14b769e73e254714f31e2f9_0001_af2_000000052_0001_37_51_H_._HHH_b1_00703_0001_0000400046_0000001_0_0001 (protein)
chain: SSSSDEELRKIEELLREVKRLAHEGNPEEARKLLEEAQRLAEEANDPIARRLVEDMRRNLNSSSS
B32: il2ra_site1_3nfp_sap_24_mot_HHH_b1_07882_000000017_0001_39_56_H_._HHH_b2_00888_0001_0000100005_0000001_0_0001_af2pred_0001_af2pred_1_swapped (protein)
chain: SSSSSYEERVRELLERAEELLEEGDLEKVKELLEEAKEVAKELGDRELIELVWRFLEEIVRSSSS
B33: il2ra_site2_2erj_sap_22_mot_HHH_b1_03833_000000078_0001_1_20_H_._HHH_b1_04328_af2_0001_0000400018_0000001_0_0001 (protein)
chain: SELERVLEEIEEKFSDDPEIKEIIEELKELIKNNDPRALHLLFKLAVILLKKNPELAHELLEATS

Each binder was assayed against il2ra, P01589 (assay: yeast display titration).

Binder | apparent Kd
B1 | inactive: no binding seen
B2 | inactive: no binding seen
B3 | inactive: no binding seen
B4 | inactive: no binding seen
B5 | inactive: no binding seen
B6 | inactive: no binding seen
B7 | inactive: no binding seen
B8 | inactive: > 21.4 µM
B9 | inactive: no binding seen
B10 | inactive: no binding seen
B11 | inactive: no binding seen
B12 | inactive: no binding seen
B13 | inactive: no binding seen
B14 | inactive: no binding seen
B15 | inactive: no binding seen
B16 | inactive: no binding seen
B17 | inactive: no binding seen

Reprinted at random: two records from the list.
Binder | apparent Kd
B6 | inactive: no binding seen
B15 | inactive: no binding seen

More entries:

Binder | apparent Kd
B18 | inactive: no binding seen
B19 | inactive: no binding seen
B20 | inactive: no binding seen
B21 | inactive: no binding seen
B22 | inactive: no binding seen
B23 | inactive: no binding seen
B24 | inactive: no binding seen
B25 | inactive: no binding seen
B26 | inactive: no binding seen
B27 | inactive: no binding seen
B28 | inactive: no binding seen
B29 | inactive: no binding seen
B30 | inactive: no binding seen
B31 | inactive: no binding seen
B32 | inactive: no binding seen
B33 | inactive: no binding seen
